Assay results reported in publication doi:10.1101/2021.08.02.454725.
These are yes or no findings as the source states them, for the method shown. Some entries that bind do so weakly or less than the wild type.

Protein sequences, listed by entry. Tags and fused reporters are not part of them.
UniProt P61829: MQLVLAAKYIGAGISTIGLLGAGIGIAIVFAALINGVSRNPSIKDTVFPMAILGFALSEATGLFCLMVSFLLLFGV

Biological target: Atp9 (yeast (endogenous in isolated mitochondria)) (UniProt P61829)
Assay: SDS-PAGE and autoradiography of an SDS-resistant oligomer

Atp9 (from UniProt P61829 1-76)
binding: binds
